A short description of data set [1]: general procedure: Boc solid-phase peptide synthesis; MBHA; DIC; preformed HOBt esters for Boc-Asn-OH and Boc-Gln-OH. Particulars: whole synthesis.
Data set [2] is described as follows: general procedure: Boc solid-phase peptide synthesis; MBHA resin (Bachem); DIC; preformed HOBt esters for Boc-Asn-OH and Boc-Gln-OH. To be noted: whole synthesis, 220 and 280 nm, scale of the general procedure 0.50 mmole, 0.070 mmole.

A value given as a limit tells only on which side of the number the result lay.

On to “[PhAc^0, D-Arg^2, Phe(pCl)^6, Arg^9, Abu^15, Nle^27, D-Arg^28, Har^29]hGH-RH(1–29)NH2”, for which, in data set [1] (scale 0.50 mmol), the crude mass worked out at 1.51 g. In addition, the “final HPLC purity” value in data set [2] is recorded as above 95%.
Substance “[PhAc^0, D-Arg^2, Phe(pCl)^6, Har^9, Tyr(Me)^10, Abu^15, Nle^27, D-Arg^28, Har^29]hGH-RH(1–29)NH2” registered a crude mass in data set [1] (scale 0.070 mmol) of 0.112 g. In addition, the “final HPLC purity” value in data set [2] is above 95%.
